Reference: PubChem BioAssay AID504834 (National Center for Advancing Translational Sciences (NCATS), 2011)
Hit rate of the full screen: of about 320,000 compounds, about 22,000 (6.9%) were called active. This list was built around the results that the source calls inconclusive (neither active nor inactive); the mix of calls is not that of the screen. The call rests on the fitted dose curve; in most records, active means well fitted inhibition curve with a large enough effect; inconclusive means small, poorly fitted or top-dose-only effect, or another doubt; inactive means no such curve, though single readings can be large or run the other way. A potency beside an inconclusive call is a rough fit, not a confirmed value.

test: Primary qHTS for delayed death inhibitors of the malarial parasite plastid, 96 hour incubation; conditions: P. falciparum luciferase reporter growth; series mostly up to 28.7 µM
Method in brief: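 Luminescence readout: decreased luciferase signal marks inhibited growth of reporter-expressing P. falciparum in infected red cells (2% hematocrit, 0.05% parasitemia final), exposed to compound two generations (96 h, 37 C, 5% CO2).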
Potency means the concentration at half of the fitted maximal effect.

Compound | Potency
Cc1ccccc1C(=O)N(Cc1cccs1)C1CCS(=O)(=O)C1 (configuration not stated) | inactive
CCOC(=O)Cn1ncc(-c2ccccc2)c1N | inconclusive: 8.28 µM [inhibitor, partial curve]
COc1ccc(CC(=O)OC2CCCN(C)C2)cc1 (configuration not stated) | inconclusive: 20.8 µM [inhibitor, partial curve, poor fit]
CC(C)(CO)CNC(=O)CCc1nnc(-c2ccc(-c3ccccc3)cc2)o1 | inconclusive: 8.28 µM [inhibitor, partial curve, poor fit]
CCCCCNc1nc2sc3c(c2c(=O)n1-c1cccc(Cl)c1)CCN(C)C3 | active: 0.165 µM
Cc1ccccc1NC(=O)CN1C(=O)c2cccnc2Oc2ccc(Cl)cc21 | inconclusive: 14.7 µM [inhibitor, partial curve]
COc1ccc(C2CCCN2C(=S)Nc2c(C)cccc2C)cc1OC (configuration not stated) | inconclusive: 2.33 µM [inhibitor, full curve, poor fit]
C=CCN=C1CC(C)(C)C(C(=O)OC)C(O)=C1C(=O)CCC (configuration not stated) | inactive
Cc1ccc(CN2C(=O)N/C(=C\c3ccc(N4CCOCC4)cc3)C2=O)cc1 | inconclusive: 13.1 µM [inhibitor, partial curve, poor fit]
Cc1c(O)nc(SCC(=O)Nc2ccc3c4c(cccc24)CC3)n(-c2ccc(F)cc2)c1=O | inactive
Cc1onc(C(=O)NCc2ccc(F)cc2)c1[N+](=O)[O-] | inconclusive: 18.5 µM [inhibitor, single point]
CCOC(=O)C1=C(O)c2ccccc2C(=O)/C1=C\c1ccc(C)cc1 | active: 4.15 µM
CSCc1cc(N(C)C)nc(SCc2ccc(Cl)cc2Cl)n1 | inconclusive: 18.5 µM [inhibitor, single point]
COc1ccc(-c2cc3ccccc3n2CC(O)CNC(CO)(CO)CO)cc1 (configuration not stated) | inconclusive: 10.4 µM [inhibitor, single point]
COc1cc2c(cc1OC)CN(C(=O)c1ccc(S(=O)(=O)N3CCCC3)cc1)CC2 | inactive
N#CCC(=O)NC1CCC(CC2CCC(NC(=O)CC#N)CC2)CC1 (configuration not stated) | inconclusive: 18.5 µM [inhibitor, single point]
CC1CCC(NC(=O)CN2C(=O)c3cccnc3Oc3ccc(Cl)cc32)CC1 (configuration not stated) | inactive
CCCCN1C(=N)C(CC)(CC)C(=O)NC1=O | active: 14.7 µM
Cc1ccc(CC(=O)N2CCN(c3ccc([N+](=O)[O-])cc3)CC2)cc1 | inconclusive: 18.5 µM [inhibitor, single point]
CCCCC(=O)NC(c1ccccc1)c1ccc2cccnc2c1O (configuration not stated) | inconclusive: 8.28 µM [inhibitor, partial curve, poor fit]
COc1cc(NC(=O)CN2c3cccc4cccc(c34)S2(=O)=O)cc(OC)c1OC | inconclusive: 13.1 µM [inhibitor, single point]
COc1ccc2cnn(-c3ccc(OC(F)(F)Cl)cc3)c(=O)c2c1OC | inactive
CN(CC(=O)c1c(N)n(C)c(=O)n(C)c1=O)c1ccccc1 | inactive
O=C(Nc1ccccc1F)c1ccc([N+](=O)[O-])s1 | active: 4.15 µM

Compound | Potency
CC(C)(C)n1ncc2c(=O)n(Cc3cccc(Cl)c3)cnc21 | inconclusive: 5.22 µM [inhibitor, partial curve, poor fit]
COc1ccc(N2CCN(C(=O)COC(=O)c3cccc(S(=O)(=O)Nc4ccccc4OC)c3)CC2)cc1 | inconclusive: 14.7 µM [inhibitor, single point]
CC(C)NC(=O)CCCN1C(=O)c2ccccc2Sc2ncccc21 | active: 0.262 µM
O=C(c1ccc([N+](=O)[O-])cc1)N(Cc1ccccc1)c1ccccn1 | inconclusive: 2.33 µM [inhibitor, partial curve, poor fit]
Clc1ccc(Nc2ccc(NCc3ccccc3)nn2)cc1 | active: 1.85 µM
CCn1cc([N+](=O)[O-])c(C(=O)N2N=C3/C(=C/c4cccs4)CCCC3C2c2cccs2)n1 (configuration not stated) | inconclusive: 18.5 µM [inhibitor, partial curve, poor fit]
COc1cccc(CNC(=O)C2CCN(S(=O)(=O)c3ccc4c(c3)NC(=O)CO4)CC2)c1 | inconclusive: 18.5 µM [inhibitor, single point]
CCC(C)(C)NC(=S)Nc1ccccc1C | inconclusive: 1.31 µM [inhibitor, full curve, poor fit]
CC(C)c1ccc(S(=O)(=O)N2CCN(C(=S)NCc3ccco3)CC2)cc1 | inconclusive: 2.62 µM [inhibitor, full curve]
Cc1coc2c1C(=O)C(=O)c1c-2ccc2c1CCCC2(C)C | inconclusive: 1.47 µM [inhibitor, full curve, poor fit]
Cc1ccccc1N1CCN(C2CCCN(C(=O)c3ccccn3)C2)CC1 (configuration not stated) | inconclusive: 18.5 µM [inhibitor, single point]
O=C(CSc1nc2ccc(Nc3nc(N4CCOCC4)nc(N4CCOCC4)n3)cc2s1)NCc1ccco1 | inconclusive: 14.7 µM [inhibitor, single point]
COc1ccc(NC2CCCN(C(=O)CCc3cn[nH]c3)C2)cc1 (configuration not stated) | inactive
O=C(CSCc1ccccc1Cl)NNC(=S)Nc1ccccc1 | inactive
O=C(CSc1ccc2nnc(-c3ccncc3)n2n1)Nc1nccs1 | inactive
CC(C)(C)c1cc(C(=O)NNc2ccc(OC(F)(F)F)cc2)n(Cc2ccccc2)n1 | inconclusive: 11.7 µM [inhibitor, single point]
O=C(Nc1ccc2c(c1)OCCO2)c1oc2ccccc2c1NC(=O)C1CC1 | inactive
CC(=O)C1=C(C)NC(C)=C(C(C)=O)C1c1ccccc1 | inactive
CCOc1ccc(S(=O)(=O)NC(C)C(=O)NCc2ccc3c(c2)OCO3)cc1 (configuration not stated) | inactive
O=C(Cc1c(Cl)cccc1Cl)Nc1cccnc1 | inconclusive: 0.0465 µM [inhibitor, full curve, poor fit]
CCOC(=O)c1nnn(CC(=O)Nc2cc(F)ccc2F)c1C(=O)OCC | inconclusive: 0.465 µM [inhibitor, partial curve, poor fit]
O=C(CNS(=O)(=O)c1ccc(F)cc1)Nc1ccccc1 | inactive
NC(=O)Cn1cc(/C=N\NS(=O)(=O)c2ccccc2)c2ccccc21 | inconclusive: 18.5 µM [inhibitor, single point]
O=[N+]([O-])c1ccc(CN2CCN(Cc3c[nH]c4ccccc34)CC2)cc1 | inconclusive: 0.0738 µM [inhibitor, full curve, poor fit]

Compound | Potency
COC(=O)c1ccc(C(=O)OC)c(NC(=O)c2cccnc2)c1 | inconclusive: 10.4 µM [inhibitor, single point]
Cc1ccc(C(=O)NCC(=O)OC(C)C(=O)NCCC2=CCCCC2)cc1C (configuration not stated) | inactive
COc1ccc(NCc2nc3ccccc3n2C)cc1 | inconclusive: 11.7 µM [inhibitor, single point]
Cc1ccsc1C(=O)C1CCCN(Cc2c(C)nn(C(C)C)c2C)C1 (configuration not stated) | inconclusive: 0.329 µM [inhibitor, full curve, poor fit]
Cn1c(=O)oc2cc(S(=O)(=O)N3CCC(C(=O)N4CC=C(c5ccccc5)CC4)CC3)ccc21 | inconclusive: 1.17 µM [inhibitor, full curve, poor fit]
Cc1cc(C)n(Cc2ccc(F)cc2)c(=O)c1C#N | inconclusive: 8.28 µM [inhibitor, partial curve, poor fit]
OCCN=c1cc(-c2ccccc2)oc2ccc(Cl)cc12 | inconclusive: 0.415 µM [inhibitor, partial curve, poor fit]
O=C(CSc1nncn1-c1ccccc1)Nc1ccc(F)cc1F | inactive
CC1(C)Cc2c(cnn2-c2ccc(F)cc2)C(NC(=O)c2ccco2)C1 (configuration not stated) | inactive
CCOc1ccc2c(c1)-c1c(ssc1=S)C(C)(C)N2C(=O)c1ccco1 | active: 1.31 µM
O=C(Nc1ccccc1)C1=C[C@H](c2coc3ccccc3c2=O)C[C@H](OCCCCO)O1 | inconclusive: 18.5 µM [inhibitor, single point]
Cc1ccccc1Cn1nc(C)c(NC(=O)c2noc3c2CC(C(C)(C)C)CC3)c1C (configuration not stated) | inactive
Cc1ccc(C(=O)NC(NC(=O)c2ccc(C)cc2)C(Cl)Cl)cc1 | inconclusive: 18.5 µM [inhibitor, single point]
CCOc1ccc(-c2csc(NNC3=NCCCCC3)n2)cc1 | inactive
C=CCn1c(O)c(N=NC(=S)Nc2cccc(C)c2)c2ccccc21 | inactive
CCn1cc(C(=O)N[C@@H](CCSC)C(=O)NCCCN2CCOCC2)c(=O)c2cc3c(cc21)OCO3 | inactive
O=C(COC(=O)c1cc(=O)[nH]c2ccccc12)c1cccs1 | inconclusive: 3.7 µM [inhibitor, partial curve]
Cc1ncoc1C(=O)N1CCCC(C(=O)c2ccc(-c3ccccc3)cc2)C1 (configuration not stated) | inactive
CCNC(=O)C(=O)N/N=C/c1cc([N+](=O)[O-])ccc1O | active: 10.4 µM
CC(C)=CC(=O)O[C@@H]1Cc2cc3ccc(=O)oc3cc2OC1(C)C | inactive
Cc1ccc(-c2nnc(CSc3nc(C(C)C)nc4sc(C)c(C)c34)o2)cc1 | inconclusive: 14.7 µM [inhibitor, single point]
Cc1ccc(N2CC(C(=O)Nc3nnc(C)s3)CC2=O)cc1 (configuration not stated) | inconclusive: 10.4 µM [inhibitor, single point]
CCc1ccccc1N(CC(=O)NCc1ccco1)C(=O)CCC(=O)Nc1nccs1 | inconclusive: 13.1 µM [inhibitor, single point]
CSc1ccc(C(=O)C2CCCN(C(=O)c3ccc(C)nc3)C2)cc1 (configuration not stated) | inactive

A different layout for three compounds above.
N#CCC(=O)NC1CCC(CC2CCC(NC(=O)CC#N)CC2)CC1 (configuration not stated)
  Potency: inconclusive: 18.5 µM [inhibitor, single point]
COc1cc(NC(=O)CN2c3cccc4cccc(c34)S2(=O)=O)cc(OC)c1OC
  Potency: inconclusive: 13.1 µM [inhibitor, single point]
CN(CC(=O)c1c(N)n(C)c(=O)n(C)c1=O)c1ccccc1
  Potency: inactive
